Measurements from PubChem BioAssay AID2551 (National Center for Advancing Translational Sciences (NCATS), 2010).
In all, about 310,000 compounds went through this assay and about 17,000 (5.5%) were called active. Inconclusive results, whose numbers are uncertain, are shown with a selection of clear calls. The call rests on the fitted dose curve; in most records, active means well fitted inhibition curve with a large enough effect; inconclusive means small, poorly fitted or top-dose-only effect, or effect the other way; inactive means no such curve, though single readings can be large or run the other way. Potencies of inconclusive entries are doubtful fits and often do not repeat.

Chains of the proteins cited; added tags and fusions are not shown. Lines headed by an entry give the natural chain unless they say otherwise; changes in a name come on top.
UniProt P51450: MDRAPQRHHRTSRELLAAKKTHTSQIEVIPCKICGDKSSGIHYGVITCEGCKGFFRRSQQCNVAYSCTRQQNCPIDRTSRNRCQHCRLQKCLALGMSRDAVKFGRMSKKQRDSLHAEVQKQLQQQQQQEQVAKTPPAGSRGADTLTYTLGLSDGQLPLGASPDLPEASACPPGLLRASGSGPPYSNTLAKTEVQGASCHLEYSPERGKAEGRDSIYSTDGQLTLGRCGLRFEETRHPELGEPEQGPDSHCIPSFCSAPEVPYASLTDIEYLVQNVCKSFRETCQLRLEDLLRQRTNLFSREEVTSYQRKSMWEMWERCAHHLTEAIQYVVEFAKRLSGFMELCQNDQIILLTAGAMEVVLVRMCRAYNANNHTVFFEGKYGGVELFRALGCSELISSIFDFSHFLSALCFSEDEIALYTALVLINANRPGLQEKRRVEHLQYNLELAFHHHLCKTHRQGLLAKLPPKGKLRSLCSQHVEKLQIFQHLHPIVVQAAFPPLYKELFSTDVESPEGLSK

What follows are molecules tested against Nuclear receptor ROR-gamma (Mus musculus) (UniProt P51450) (assay: qHTS for inhibitors of ROR gamma transcriptional activity). Conditions: Drosophila S2 Gal4-RORgamma UAS-luciferase reporter, 20 h; series mostly up to 53.6 µM.
Outline: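 Luciferase reporter read in Schneider cells carrying Gal4-RORγ (mouse) and UAS-Photinus luciferase; cells given compound 1 h before 700 uM copper sulfate induction, then incubated 20 h at ambient temperature.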
Further: nearly all actives have a fitted effect of over 60% in size.
Potency means the concentration at half of the fitted maximal effect.

Structure (SMILES) | Potency
O=C(CSc1nnc(-c2ccco2)c(-c2ccco2)n1)c1ccccc1 | inactive
Cc1nnc(NC(=O)c2ccccc2NC(=O)c2ccccc2)s1 | active: 17.8 µM
Cc1nnc(NC(=O)CC23CC4CC(CC(C4)C2)C3)s1 | inconclusive: 11.2 µM [inhibitor, partial curve]
O=C(CSc1nnc(NC(=O)c2ccc(F)cc2)s1)NC1CC1 | inconclusive: 35.5 µM [inhibitor, single point]
COc1ccc(NC(=O)C(C)Sc2nnc3c4c(nc(-c5ccc(OC)cc5)n23)CC(C)(C)OC4)cc1 (stereo not drawn) | inconclusive: 5.01 µM [activator, partial curve]
Cc1c(N2C(=O)CSC2=S)c(=O)n(-c2ccccc2)n1C | active: 12.6 µM
COc1ccc(NS(=O)(=O)c2cccc(NC(=O)CCC(=O)c3ccc(Cl)cc3)c2)cc1 | inconclusive: 35.5 µM [activator, partial curve]
CCCNC(=O)c1ccc2c(=O)n(Cc3ccco3)c(=S)[nH]c2c1 | inactive
CC1c2ccccc2N(NC(=O)Cc2ccccc2)C1C (stereo not drawn) | inconclusive: 11.2 µM [inhibitor, single point]
COCCCn1c(SCC(=O)Nc2ccc(C)cc2)nc2ccccc2c1=O | inactive
CCOc1ccccc1-c1nnc(SCC(=O)NC2CC3CCC2C3)n1CC (stereo not drawn) | inconclusive: 6.31 µM [activator, single point]
Cc1ccc(OCC(=O)NC(=S)Nc2cccc(NC(=O)c3ccccc3Cl)c2)cc1 | inconclusive: 10 µM [inhibitor, partial curve]
O=C(NNC(=O)c1ccccc1OCc1ccccc1Cl)c1csc(N2CCOCC2)n1 | active: 12.6 µM
O=C(NC(=S)Nc1ccccc1[N+](=O)[O-])c1ccccc1Cl | active: 3.98 µM
Cc1ccc(NC(=O)CN(C)CC(=O)Nc2sc3c(c2C(N)=O)CCC3)cc1 | active: 15.8 µM
C/C(=C\C(=O)OCCCCCCCCC(=O)O)C[C@@H]1OCC(C[C@H]2O[C@H]2[C@@H](C)[C@H](C)O)[C@@H](O)[C@H]1O (stereo partly drawn) | inactive
Cc1cc2nc(-c3ccc(SCC(=O)Nc4ccc(S(=O)(=O)N5CCCC5)cc4)nc3)[nH]c2cc1C | inconclusive: 11.2 µM [inhibitor, single point]
CNC(=S)N(Cc1cccs1)Cc1cc2ccc(OC)cc2[nH]c1=O | inactive
O=S1(=O)C2CC3C=CC2(O3)C(O)C(Cc2ccccc2)N1Cc1cccc(F)c1 (stereo not drawn) | inactive
O=C(NC(=S)Nc1cc(C(F)(F)F)ccc1N1CCOCC1)c1sc2ccccc2c1Cl | active: 2.24 µM
COc1ccccc1OCC(=O)c1[nH]c(C)c(C(C)=O)c1C | inconclusive: 17.8 µM [activator, partial curve, poor fit]
CCOC(=O)c1nn(-c2ccccc2)c(C(=O)OCC)c1N | active: 1.26 µM
CC(C)c1nc2sc3c(NCc4ccccc4)ncnc3c2c2c1COC(C)(C)C2 | inactive
Oc1sc(C=Nc2ccccc2)c2ccccc12 | inconclusive: 3.55 µM [activator, full curve, poor fit]
O=C(Nc1nc2ccccc2n1CCN1CCCC1)C1CCCCC1 | active: 7.08 µM

Quoted at random: 4 compounds from above, in no set order.
Structure (SMILES) | Potency
COCCCn1c(SCC(=O)Nc2ccc(C)cc2)nc2ccccc2c1=O | inactive
O=C(NNC(=O)c1ccccc1OCc1ccccc1Cl)c1csc(N2CCOCC2)n1 | active: 12.6 µM
O=C(NC(=S)Nc1ccccc1[N+](=O)[O-])c1ccccc1Cl | active: 3.98 µM
CCOc1ccccc1-c1nnc(SCC(=O)NC2CC3CCC2C3)n1CC (stereo not drawn) | inconclusive: 6.31 µM [activator, single point]

Taken from above.
Entry for CC1c2ccccc2N(NC(=O)Cc2ccccc2)C1C (stereo not drawn) under Potency: inconclusive: 11.2 µM [inhibitor, single point]
Entry for Cc1nnc(NC(=O)c2ccccc2NC(=O)c2ccccc2)s1 under Potency: active: 17.8 µM

The results go on:

Structure (SMILES) | Potency
CCc1ccc(-c2ccc(SCC(=O)Nc3nnc(C)s3)nn2)cc1 | inconclusive: 12.6 µM [inhibitor, single point]
Cc1cc(C)c(NC(=O)CSc2nc3c(c(=O)n2C)SC(C)C3)c(C)c1 (stereo not drawn) | inconclusive: 12.6 µM [activator, partial curve]
CN(C)c1nc(SCCOC(=O)c2ccccc2)nc(N(C)C)n1 | inactive
Cc1ccc(/C=N/Nc2nnc(Cc3ccccc3)c(=O)[nH]2)o1 | inconclusive: 11.2 µM [inhibitor, partial curve, poor fit]
CC(C)Nc1ncnc2c1cnn2-c1ccccc1 | inconclusive: 25.1 µM [inhibitor, single point]
CC(C)(C)c1ccc(/C=C/C(=O)Nc2ccc3c(c2)OCCO3)cc1 | inconclusive: 15.8 µM [activator, single point]
CC1(C)NC(=O)N(CCOCCOc2cccc(Oc3ccccc3)c2)C1=O | inconclusive: 12.6 µM [activator, partial curve]
CCOc1ccc(NC(=S)N(CCOC)C(C)c2ccco2)cc1 (stereo not drawn) | active: 8.91 µM
Cc1cccc(-c2cccc(NC(=O)C3CCCN(C(=O)c4csc(C)n4)C3)c2)c1 (stereo not drawn) | inconclusive: 15.8 µM [activator, partial curve]
COc1ccc2c(Cl)c(C(=O)NC3CCS(=O)(=O)C3)sc2c1 (stereo not drawn) | inconclusive: 3.55 µM [activator, partial curve, poor fit]
CCOc1cc(/C=C2\N=C(SC(C)C(N)=O)N(c3ccc(OC(F)F)cc3)C2=O)ccc1O (stereo not drawn) | inactive
CCc1cc2cc(C(=O)Nc3ccc(F)cc3)sc2s1 | inconclusive: 2.51 µM [activator, single point]
CCOC(=O)C1CCN(C(=O)COc2ccc(Cl)cc2C)CC1 | inconclusive: 0.178 µM [inhibitor, partial curve]
COc1ccccc1-c1ccc(SCc2ccccc2F)nn1 | inconclusive: 14.1 µM [activator, single point]
Nc1ccc(Nc2ccccc2N)cc1 | inconclusive: 1.12 µM [activator, single point]
COc1ccc(OC)c(-c2csc(CCn3nc(C)cc3C)n2)c1 | active: 14.1 µM
CC1CCCCN1c1ncnc(N)c1[N+](=O)[O-] (stereo not drawn) | inactive
O=C1CCC(/C=C/c2ccccc2)=NN1Cc1ccccc1 | inactive
Cc1cccc(CN2CCc3c([nH]c4ccccc34)C2CC(C)C)n1 (stereo not drawn) | inconclusive: 15.8 µM [inhibitor, single point]
COc1cc(/C=N/NC(=O)c2ccncc2)ccc1OCC(=O)Nc1ccccc1 | inconclusive: 5.01 µM [activator, full curve, poor fit]
Cc1ccc(NC(=S)Nc2ccc(F)cc2)cc1C | active: 7.08 µM
COc1ccc(-c2cnc(N)nc2-c2ccc(OCc3ccccc3)cc2O)cc1 | inconclusive: 11.2 µM [activator, partial curve]
CC(C)C[C@H](NC(=O)c1nc[nH]c1C(=O)N1CCc2ccccc2C1)C(=O)OCc1ccccc1 | inconclusive: 35.5 µM [inhibitor, single point]
Oc1cccc(/C=N/Nc2ncnc3c2ncn3Cc2ccccc2)c1 | inconclusive: 0.316 µM [inhibitor, partial curve, poor fit]
COC(=O)C1=C(N)Oc2cc(C)n(CCN3CCOCC3)c(=O)c2C1c1cccnc1 (stereo not drawn) | inconclusive: 14.1 µM [inhibitor, single point]

Structure (SMILES) | Potency
O=C(Nc1ccc2c(c1)OCO2)c1ccc(Cl)c(S(=O)(=O)N2CCOCC2)c1 | inconclusive: 22.4 µM [activator, single point]
Cc1ccc2nc(C(O)C(O)c3nc4ccc(C)cc4[nH]3)[nH]c2c1 (stereo not drawn) | active: 7.08 µM
CCOC(=O)c1c(NC(=O)CN2C(=O)NC3(CCCCC3C)C2=O)sc(C)c1C (stereo not drawn) | inconclusive: 35.5 µM [activator, single point]
O=C(Nc1cccnc1)c1cc2c(ccc3ccccc32)o1 | active: 1.41 µM
Cc1cccc(OCC(=O)NCCN2CCOCC2)c1 | inconclusive: 22.4 µM [inhibitor, single point]
CN(C)S(=O)(=O)c1ccc(C(=O)Nc2nc(-c3cc4ccccc4o3)cs2)cc1 | inconclusive: 31.6 µM [inhibitor, single point]
S=C(NCc1ccc(Cl)cc1)Nc1ccccc1 | active: 2.24 µM
COc1ccc(Cl)cc1NC(=O)CN(C)CC(=O)Nc1ccc(S(N)(=O)=O)cc1 | inactive
CCOc1ccc(-c2c(C(=O)N/N=C/C3CCCCC3)nnn2-c2nonc2N)cc1 | inactive
O=C(/C=C/c1ccc(Cl)cc1)c1cccnc1 | inconclusive: 8.91 µM [inhibitor, partial curve]
Cn1cccc1/C=N/NC(=O)c1cc(-c2cccs2)nc2ccccc12 | active: 7.08 µM
COc1ccc(CNC(=O)c2ccc(Br)cc2)cc1 | inactive
Cc1cc(C(F)(F)F)nc(SCc2ccc(C(=O)O)o2)n1 | inconclusive: 15.8 µM [inhibitor, single point]
Nc1nc(CSc2nnnn2-c2ccccc2)nc(N2CCCc3ccccc32)n1 | inactive
O=C(CCN1C(=O)c2ccccc2S1(=O)=O)Nc1ccccc1 | inconclusive: 6.31 µM [inhibitor, single point]
O=C(CSc1nnc(SCc2ccccc2)s1)N/N=C/C=C/c1ccccc1[N+](=O)[O-] | inconclusive: 17.8 µM [inhibitor, single point]
Cc1cccc(CSC(Nc2ccc(F)cc2)=C(C#N)C#N)c1 | inconclusive: 35.5 µM [inhibitor, single point]
COc1ccccc1CNC(=O)C1CCC(=O)N(CCCc2ccccc2)C1 (stereo not drawn) | inactive
Cn1c(SCC(=O)N=Nc2c(O)[nH]c3ccccc23)nc2ccccc21 | inconclusive: 0.0056 µM [activator, full curve, poor fit]
O=C(Nc1ccc(S(=O)(=O)Nc2cnc3ccccc3n2)cc1)c1cccc(OC(F)F)c1 | inconclusive: 14.1 µM [activator, single point]
O=C(Nc1ccccc1-c1ccccc1)C(c1ccccc1)c1ccccc1 | inactive
CCCC(=O)NNC(=O)CCC(=O)Nc1ccccc1Cl | inactive
CCn1c(C(=O)N2CCC(C(=O)NCc3ccc(OC)cc3)CC2)cc2sccc21 | inconclusive: 12.6 µM [activator, partial curve, poor fit]
